For the test, the target named is Thermotoga maritima UvrA Δ117-399 (Thermotoga maritima) (UniProt Q9WYV0). Nature of the test: crystal structure; 2.0 Å; T. maritima UvrA2 dimer, fully ADP-bound, open conformation; both purified.

Results are given in words; binding and its absence hold for the method and conditions named. Some entries that bind do so weakly or less than the wild type.

B1: Thermotoga maritima UvrA Δ117-399 (enzyme, UniProt Q9WYV0)
chain: MNEIVVKGARVHNLKNITVRIPKNRLVVITGVSGSGKSSLAMDTIYAEGQRRYLESLSTYARQFLGNLKKPDVDEIEGLSPAIAIDQKTVSHNPRSTVGTVTEIYDYLRVLYARIGKINGLNIHEFTELSISEELEFLKNLNLTEREREIVGELLKEIEKRLEFLVDVGLEYLTLSRSATTLSGGESQRIRLATQIGSGLTGVIYVLDEPTIGLHPRDTERLIKTLKKLRDLGNTVIVVEHDEEVIRNADHIIDIGPGGGTNGGRVVFQGTVDELLKNPDSSLTGEYLSGKRKITVNKTRRLPYASLKIKGVRHNNLKNIDVEIPLGVFVCVTGVSGSGKSSLVMETLYPALMNLLHKTKLPAGEFDSIEGHENIDKMIAIDQSPIGRTPRSNPATYTKVFDEIRSLFAMTPAAKARGYNKSRFSFNLKGGRCEACQGQGYVKIEMLFLPDVYVECDVCKGKRYNRETLEITYKGKNISDILDMTVDEALEFFKNIPSIKRTLQVLHDVGLGYVKLGQPATTLSGGEAQRIKLASELRKRDTGRTLYILDEPTVGLHFEDVRKLVEVLHRLVDRGNTVIVIEHNLDVIKNADHIIDLGPEGGKEGGYIVATGTPEEIAKNPHSYTGRFLKNVL
Regarding B1, the binding entry is “binds”.
